These results are taken from paper PMC4860834.

No constants are given. Whether binding was seen depends on the method and setting. In cells and extracts the contact can be indirect. Some results given as binding are weak or reduced against the parent protein; the word gives no strength. For part of these data: Sequences can lack the tags named with a protein.

For assay [1], the target named is T1, dysbindin-1A protein (in transfected cells, crosslinking experiment) (human), Q96EV8.
T1 chain: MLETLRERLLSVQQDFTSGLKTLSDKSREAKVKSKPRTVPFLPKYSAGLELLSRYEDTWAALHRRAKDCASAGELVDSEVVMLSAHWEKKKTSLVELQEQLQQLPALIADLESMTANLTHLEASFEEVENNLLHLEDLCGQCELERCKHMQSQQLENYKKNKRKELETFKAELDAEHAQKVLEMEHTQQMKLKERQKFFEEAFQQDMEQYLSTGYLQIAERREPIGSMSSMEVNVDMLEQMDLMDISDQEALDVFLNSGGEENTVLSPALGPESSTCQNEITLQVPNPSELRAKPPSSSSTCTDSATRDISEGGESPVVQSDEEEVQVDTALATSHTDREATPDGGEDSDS
Put plainly: cross-linking; crosslinking experiments in transfected cells. As to conditions: remark: other sources report otherwise.

Assay [2] addresses T2, His-tagged dysbindin-1A (human), Q96EV8.
T2 chain: T1 chain
As to the kind of experiment: pull-down; His-tag pull-down: purified His-tagged bait (His-dysbindin-1A or His-Smt3) incubated with cell lysates holding HA-tagged dysbindin-1A or -1B; HA-tagged proteins detected in the pull-down fraction; only the target purified. As to conditions: remark: other sources report otherwise.

In another assay the target is His-Smt3 [SUMO: Q12306]. The assay is described as above.

B1: dysbindin-1A protein (in transfected cells, crosslinking experiment), Q96EV8-1 1-351 (protein)
chain: T1 chain
For the molecule B1, in assay [1], the binding result is reported as “binds”.

B2: HA-tagged dysbindin-1A, Q96EV8-1 1-351 (protein)
chain: T1 chain
On to B2, for which the binding entry in assay [2] is recorded as “binds”.

B3: HA-tagged dysbindin-1A (protein, UniProt Q96EV8-1 1-351)
chain: T1 chain
Take B3: the binding result with His-Smt3 [SUMO: Q12306] was “no binding”.
